Some results were stated once for a whole list of compounds, not compound by compound.
Test system: female A/J mice bearing a tumour (Neuro 2A)
Experiment: In vivo transfection, i.v., luciferase expression in tumours and organs
Set-up: species or system mouse
Settings: i.v. tail vein, 50 ug pCI-Luc alone or complexed with just the named component, 5% glucose, 24 hours
Description: All animal procedures were approved and licensed by the Home Office and performed to the standards required by the UK Co-ordinating Committee on Cancer Research (UKCCCR) (Workman et al., British Journal of Cancer, 1998, 77, 1-10). Female A/J mice (Harlan Laboratories, U.K) of 8-12 weeks old were injected subcutaneously in the right posterior flank with 1.5×10^6 Neuro 2A cells. After 10±2 days, when tumors had reached approximately 8-12 mm in size, 100 μl of LPD complexes made in 5% glucose and containing 50 ug pCI-Luc or pAB 11 were injected into the tail vein. Experiments were carried out at least six times. Twenty-four hours after injection, mice were killed and tumours and organs were resected and stored at −80° C. Tissues were defrosted in ice, submersed in reporter gene assay lysis buffer (Roche, Germany), homogenized with an IKA homogenizer (IKA, Staufen, Germany) and centrifuged at 4600 rpm during 10 min at 4° C. The supernatant was got back and centrifuged at 13000 rpm during 10 min at 4° C. Luciferase activity in the tissue lysates was measured using a FLUOstar Optima (BMG Labtech, UK) during 30 seconds and was expressed as RLU per milligram of protein (RLU/mg). Two million RLU/30 sec correspond to 1 ng luciferase.

(K)16RVRRGACRGDCLG [ME27] was tested. Which “level of luciferase expression in all the organs” value did it give?
The value was “less than 6500 RLU/mg”.

From patent publication US9399016B2, “Materials and complexes for the delivery of biologically-active materials to cells” (UCL BUSINESS PLC, priority 2006, dated 2016)
